# From US20100047327A1, “Adjuvant for Transdermal or Transmucosal Administration and Pharmaceutical Preparation Containing the Same” (priority 2007, published 2010)
# At least one structure is not confirmed: it was looked up by name or label, or the drawing left a doubt.
# Assay: Skin irritation score, intracutaneous versus transdermal administration
# Assay type: in vivo, BALB/c mouse
smiles,measurement,setting,value
"CCCCCCCCCCC(CO)CCCCCCCC (centres unmarked) [Octyl dodecanol, octyl dodecanol]",Skin irritation score Intracutaneous administration,25 μL undiluted solution intracutaneously,+
same,Skin irritation score Transdermal administration,50 μL of acetone solution (50%) applied transdermally,−
